Publication PMC10815131, “Novel Pitolisant-Derived Sulfonyl Compounds for Alzheimer Disease” (International Journal of Molecular Sciences, 2024)

Test system: Male C57BL/6 mice
Details: mouse, in vivo, ip

With `CN1[C@@H]2C[C@@H](OC(=O)[C@H](CO)c3ccccc3)C[C@H]1[C@@H]1O[C@@H]12` [scopolamine] the “Discrimination index in NORT compared with controls” value was “significantly lower discrimination index compared with controls”.
